PubChem BioAssay AID330 (DTP/NCI, 2004)
The list does not hold the whole screen: it gathers tests that were run many times, whatever their T/C, doses with no T/C, and many T/C values between a quarter and a half above the control. Other doses and runs of a compound stand elsewhere. T/C: endpoint of the treated group in % of that of the vehicle group. Some doses have a count of surviving animals in place of a T/C: the source files T/C as zero there, which appears to mark a toxic dose or a test without result, not a measured value. Some survivor counts are full or nearly so, which does not show that the dose was tolerated: the source hardly ever lists a survival T/C far under the control, and the zero likely stands for such cases as well. Survivors were counted at the toxicity check, usually on the fifth day, unless a day is given; later deaths do not show. Schedule codes are those of the source, read here as Q, the interval in days (D) or hours (H), X, the number of doses. Some entries hold several experiments; the results are listed from low to high. Where survival is the endpoint, this PubChem deposit counts one and a half times the control or more as active, and values a quarter to a half above the control carry no call in these data; other NCI protocols may use other cut-offs. Some T/C values are followed by the survivors on the day toxicity was checked, most often the fifth; without a count, all were alive then.

Test system: P388 leukemia ip, CD2F1 mice, survival T/C
Test: NCI In Vivo Anticancer Drug Screen. Data for tumor model P388 Leukemia (intraperitoneal) in CD2F1 (CDF1) mice
Details: T/C endpoint: median survival time, higher T/C = longer survival
[1] = dose: 200.0 mg/kg/injection, schedule: Q01DX005 (ip), vehicle: saline with Tween-80
[2] = dose: 60.0 mg/kg/injection, schedule: Q01DX005 (ip), vehicle: saline with Tween-80
[3] = dose: 120.0 mg/kg/injection, schedule: Q01DX005 (ip), vehicle: saline with Tween-80
[4] = dose: 240.0 mg/kg/injection, schedule: Q01DX005 (ip), vehicle: saline with Tween-80
[5] = dose: 25.0 mg/kg/injection, schedule: Q01DX009 (ip), vehicle: saline with Tween-80
[6] = dose: 50.0 mg/kg/injection, schedule: Q01DX005 (ip), vehicle: Klucel (hydroxypropylcellulose) (HPC)
[7] = dose: 200.0 mg/kg/injection, schedule: Q01DX009 (ip), vehicle: other
[8] = dose: 400.0 mg/kg/injection, schedule: Q01DX009 (ip), vehicle: other
[9] = dose: 100.0 mg/kg/injection, schedule: Q01DX009 (ip), vehicle: Klucel (hydroxypropylcellulose) (HPC)
[10] = dose: 50.0 mg/kg/injection, schedule: Q01DX009 (ip), vehicle: Klucel (hydroxypropylcellulose) (HPC)
[11] = dose: 200.0 mg/kg/injection, schedule: Q01DX009 (ip), vehicle: Klucel (hydroxypropylcellulose) (HPC)

With `COC(=O)[C@@H]1C(=O)[C@H](C(=O)OC)C2CCCC3CCCC1N32` (stereo partly specified) the survivor count [1] was 5 of 6.
`COc1ccc(C2=NN(C(C)=O)C(c3cc(OC)c(OC)cc3N)S2)cc1OC` (stereo unspecified) (tested in a mixture with another compound) was tested, and the survivor count [2] was 6 of 6, the survivor count [3] was 6 of 6 and the survivor count [4] was 6 of 6.
For `Cc1c2oc3c(C)ccc(C(=O)NCCCN4CCN(C)CC4)c3nc-2c(C(=O)NCCCN2CCN(C)CC2)c(N)c1=O`, the T/C (dose: 50.0 mg/kg/injection, schedule: Q04DX003 (ip), vehicle: saline with Tween-80) was 125 % of control, the survivor count (dose: 200.0 mg/kg/injection, schedule: Q04DX003 (ip), vehicle: saline with Tween-80) was 4 of 6 and the survivor count (dose: 400.0 mg/kg/injection, schedule: Q04DX003 (ip), vehicle: saline with Tween-80) was 0 of 6.
For `N#C[CH2][Sn]([I])([c]1ccccc1)[c]1ccccc1`, the T/C (dose: 0.78 mg/kg/injection, schedule: Q01DX009 (ip), vehicle: saline with Tween-80) was 128 % of control, the T/C (dose: 1.56 mg/kg/injection, schedule: Q01DX009 (ip), vehicle: saline with Tween-80) was 134 % of control and the T/C (dose: 3.12 mg/kg/injection, schedule: Q01DX009 (ip), vehicle: saline with Tween-80) was 144 % of control. For the same compound, the T/C (dose: 3.13 mg/kg/injection, schedule: Q01DX009 (ip), vehicle: saline with Tween-80) was 144 % of control, the survivor count (dose: 6.25 mg/kg/injection, schedule: Q01DX009 (ip), vehicle: saline with Tween-80) was 3 of 6 and 4 of 6 and the survivor count (dose: 12.5 mg/kg/injection, schedule: Q01DX009 (ip), vehicle: saline with Tween-80) was 0 of 6. The survivor count [5] was 0 of 6 and the survivor count (dose: 50.0 mg/kg/injection, schedule: Q01DX009 (ip), vehicle: saline with Tween-80) was 0 of 6.
With `CN1CC[C@@H](c2ccccc2)[C@@H](O)C1` the survivor count [1] was 1 of 6.
With `CC(=O)O[C@H]1CC[C@@]2(C)C(CC[C@]3(C)C2CC=C2[C@@H]4CC(C)(C)CC[C@]4(C(=O)NCCN(C)C)CCC23C)C1(C)C` (stereo partly specified) the survivor count [3] was 1 of 6 and the survivor count [4] was 0 of 6.
For `N#CSCCC(=O)Nc1ccccc1`, the survivor count [6] was 0 of 5, the survivor count (dose: 100.0 mg/kg/injection, schedule: Q01DX005 (ip), vehicle: Klucel (hydroxypropylcellulose) (HPC)) was 0 of 5 and the survivor count (dose: 200.0 mg/kg/injection, schedule: Q01DX005 (ip), vehicle: Klucel (hydroxypropylcellulose) (HPC)) was 0 of 5.
In the case of `CNC1=C(C)C(=O)C(C)=C(C(C)(C)CC(=O)n2cc(F)c(=O)[nH]c2=O)C1=O`, the T/C (dose: 400.0 mg/kg/injection, schedule: Q01DX001 (ip), vehicle: saline with Tween-80) is reported as 137 % of control.
For `COc1cc(C2c3cc4c(c(OC)c3C(O)C3CC(=O)OC23)OCO4)cc(OC)c1OC` (stereo unspecified), the survivor count [4] was 3 of 6.
With `C/C(=C\c1cc2cc(C(=N)N)ccc2o1)c1cc2cc(C(=N)N)ccc2o1` the T/C (dose: 100.0 mg/kg/injection, schedule: Q04DX002 (ip), vehicle: saline) was 137 % of control and the T/C (dose: 200.0 mg/kg/injection, schedule: Q04DX002 (ip), vehicle: saline) was 144 % of control.
In the case of `C1CCC2OCN3CCCCC3CC2C1` (stereo unspecified), the survivor count (dose: 200.0 mg/kg/injection, schedule: Q01DX005 (ip), vehicle: saline) is reported as 3 of 6.
`COc1cc2c(cc1OC)C(Cc1cc(OC)c(OC)cc1[N+](=O)[O-])=[N+](C)CC2` was tested, and the survivor count [7] was 3 of 6 and the survivor count [8] was 0 of 6.
With `O=S(=O)(O)O.[Cu+2].[NH-]CCC[N-]CCCC[N-]CCC[NH-]` the T/C (dose: 25.0 mg/kg/injection, schedule: Q01DX001 (ip), vehicle: saline) was 129 % of control, the survivor count (dose: 50.0 mg/kg/injection, schedule: Q01DX001 (ip), vehicle: saline) was 1 of 6 and 2 of 6 and the survivor count (dose: 100.0 mg/kg/injection, schedule: Q01DX001 (ip), vehicle: saline) was 0 of 6. For the same compound, the survivor count (dose: 200.0 mg/kg/injection, schedule: Q01DX001 (ip), vehicle: saline) was 0 of 6.
`O=Cc1cc(C=O)c2ccc(=O)[nH]c2n1` was tested, and the survivor count (dose: 240.0 mg/kg/injection, schedule: Q01DX005 (ip), vehicle: Klucel (hydroxypropylcellulose) (HPC)) was 4 of 6.
`C[n+]1ccc(I)c2ccc(Cl)cc21` was tested, and the survivor count [9] was 4 of 6.
For `COc1cc2c(c(OC)c1O)-c1ccc(SC)c(=O)cc1C(NC(C)=O)CC2` (stereo unspecified), the T/C (dose: 2.5 mg/kg/injection, schedule: Q01DX009 (ip), vehicle: saline) was 135 % of control, the T/C (dose: 5.0 mg/kg/injection, schedule: Q01DX009 (ip), vehicle: saline) was 135 % of control and the T/C (dose: 5.0 mg/kg/injection, schedule: Q01DX009 (ip), vehicle: water) was 136 % of control. The T/C (dose: 10.0 mg/kg/injection, schedule: Q01DX009 (ip), vehicle: saline) was 136 % of control, the T/C (dose: 10.0 mg/kg/injection, schedule: Q01DX009 (ip), vehicle: water) was 148 % of control and the T/C (dose: 20.0 mg/kg/injection, schedule: Q01DX009 (ip), vehicle: water) was 139 % of control [5 of 6 alive]. The survivor count (dose: 40.0 mg/kg/injection, schedule: Q01DX009 (ip), vehicle: water) was 6 of 6.
With `COc1cc(O)c2c(O)c3c(c4c2c1[C@]1(C4)C(C)=CCCC1(C)C)[C@H](O)[C@@]1(O)CC(=O)C(C(N)=O)=C(O)[C@@]1(O)C3=O` the T/C (dose: 6.0 mg/kg/injection, schedule: Q01DX009 (ip), vehicle: saline with Tween-80) was 128 % of control, the survivor count (dose: 24.0 mg/kg/injection, schedule: Q01DX009 (ip), vehicle: saline with Tween-80) was 4 of 6 and the survivor count (dose: 48.0 mg/kg/injection, schedule: Q01DX009 (ip), vehicle: saline with Tween-80) was 3 of 6. The T/C [10] was 131 % of control, the T/C [9] was 127 % of control and the survivor count [9] was 6 of 6. For the same compound, the T/C [11] was 136 % of control and the survivor count [11] was 0 of 6.
With `FC(F)(F)CO[Te](OCC(F)(F)F)(OCC(F)(F)F)OCC(F)(F)F` the survivor count (dose: 25.0 mg/kg/injection, schedule: Q01DX001 (ip), vehicle: saline with Tween-80) was 3 of 6, the survivor count (dose: 50.0 mg/kg/injection, schedule: Q01DX001 (ip), vehicle: saline with Tween-80) was 0 of 6 and 3 of 6 and the survivor count (dose: 100.0 mg/kg/injection, schedule: Q01DX001 (ip), vehicle: saline with Tween-80) was 0 of 6. For the same compound, the survivor count (dose: 200.0 mg/kg/injection, schedule: Q01DX001 (ip), vehicle: saline with Tween-80) was 0 of 6.
`CC(=NCCCCN=C(C)c1cc(C)cc(Br)c1O)c1cc(C)cc(Br)c1O` was tested, and the survivor count [6] was 6 of 6.
In the case of `COc1ccc(N=NNc2ccc(OC)cc2)cc1`, the T/C [5] is reported as 127 % of control.
In the case of `O=c1nc2sccn2c2ncccc12`, the survivor count [2] is reported as 0 of 6, the survivor count [3] is reported as 0 of 6 and the survivor count [4] is reported as 0 of 6.
In the case of `O=C1C=CC(=O)c2cc(Cl)c(Cl)cc21`, the survivor count (dose: 9.4 mg/kg/injection, schedule: Q01DX009 (ip), vehicle: saline with Tween-80) is reported as 3 of 6 and the survivor count (dose: 25.0 mg/kg/injection, schedule: Q04DX003 (ip), vehicle: saline with Tween-80) is reported as 2 of 6.
In the case of `COc1cc2cc3c4cc(OC)c(OC)cc4cc(C)[n+]3cc2cc1OC`, the T/C (dose: 25.0 mg/kg/injection, schedule: Q01DX009 (ip), vehicle: other) is reported as 139 % of control, the T/C (dose: 50.0 mg/kg/injection, schedule: Q01DX009 (ip), vehicle: other) is reported as 134 % of control and the T/C (dose: 100.0 mg/kg/injection, schedule: Q01DX009 (ip), vehicle: other) is reported as 134 % of control. The T/C [7] was 139 % of control, the T/C (dose: 200.0 mg/kg/injection, schedule: Q01DX009 (ip), vehicle: water) was 141 % of control and the T/C [8] was 131 % of control [5 of 6 alive]. The T/C (dose: 400.0 mg/kg/injection, schedule: Q01DX009 (ip), vehicle: water) was 144 % of control.
`C=CCNSc1ccccc1` was tested, and the survivor count [10] was 0 of 6, the survivor count [9] was 0 of 6 and the survivor count [11] was 0 of 6.
`O=C(Nc1ccccc1C(=O)Nc1ccccc1C(=O)O)c1cccnc1` was tested, and the survivor count (dose: 400.0 mg/kg/injection, schedule: Q04DX002 (ip), vehicle: saline with Tween-80) was 3 of 6.
